These are yes or no findings as the source states them, for the method shown. Some results given as binding are weak or reduced against the parent protein; the word gives no strength.
Experiments:
[1] = target: Steely1 C-terminal type III PKS domain (heterologously expressed Steely1 medium length (SIM) construct) (Dictyostelium discoideum) (UniProt Q55E72); assay: X-ray crystal structure, asymmetric unit content; self-association (homodimer)
[2] = target: Steely1 C-terminal type III PKS domain (heterologously expressed Steely1 medium length (SIM) construct) (Dictyostelium discoideum) (UniProt Q55E72); assay: X-ray crystal structure; self-association (homodimer)
[3] = target: Steely1 C-terminal type III PKS domain (heterologously expressed Steely1 medium length (SIM) construct) (Dictyostelium discoideum) (UniProt Q55E72); assay: X-ray crystal structure, figure legend; self-association (homodimer)
[4] = target: Steely1 C-terminal type III PKS domain (heterologously expressed Steely1 medium length (SIM) construct) (Dictyostelium discoideum) (UniProt Q55E72); assay: X-ray crystal structure, 2.9 Angstrom; self-association (homodimer)

binding [1]: binds
binding [2]: binds
binding [3]: binds
binding [4]: binds
B1: Steely1 C-terminal type III PKS domain (heterologously expressed Steely1 medium length (SIM) construct) (enzyme)
chain: LSRLSYKSNNNSFVLGIGISVPGEPISQQSLKDSISNDFSDKAETNEKVKRIFEQSQIKTRHLVRDYTKPENSIKFRHLETITDVNNQFKKVVPDLAQQACLRALKDWGGDKGDITHIVSVTSTGIIIPDVNFKLIDLLGLNKDVERVSLNLMGCLAGLSSLRTAASLAKASPRNRILVVCTEVCSLHFSNTDGGDQMVASSIFADGSAAYIIGCNPRIEETPLYEVMCSINRSFPNTENAMVWDLEKEGWNLGLDASIPIVIGSGIEAFVDTLLDKAKLQTSTAISAKDCEFLIHTGGKSILMNIENSLGIDPKQTKNTWDVYHAYGNMSSASVIFVMDHARKSKSLPTYSISLAFGPGLAFEGCFLKNVV

Reference: patent US20080233628A1
